Test results taken from article PMC12117712.

Molecular target: T1, Enoyl-CoA hydratase short-chain 1 (ECHS1) (human (endogenous in HCT116 and LoVo)) (UniProt P30084)
T1 sequence: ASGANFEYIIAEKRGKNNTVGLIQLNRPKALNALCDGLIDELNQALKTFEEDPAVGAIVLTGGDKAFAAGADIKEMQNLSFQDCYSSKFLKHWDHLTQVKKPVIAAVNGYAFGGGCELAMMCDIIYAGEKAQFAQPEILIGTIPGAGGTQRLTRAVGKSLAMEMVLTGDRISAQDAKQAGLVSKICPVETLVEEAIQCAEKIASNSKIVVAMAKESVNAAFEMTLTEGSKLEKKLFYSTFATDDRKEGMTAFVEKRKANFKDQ
Assay: co-IP; lysates of HCT116 and LoVo cells in 50 mM Tris-HCl pH 7.5, 150 mM NaCl, 0.1% NP-40; anti-ECHS1 antibody and Protein G agarose, 4-5 h at 4 °C; Western blot

binding: binds
Substance: Sirtuin 3 (SIRT3) (human (endogenous in HCT116 and LoVo))

No constants are given. Whether binding was seen depends on the method and setting. Binding seen in cells or lysates may run through a third protein. A result given as binding can be weak or reduced; the word gives no strength.
